The target of experiment [1] is mixed-lineage leukemia protein (MLL) (human (endogenous in LNCaP)) (UniProt Q03164). Briefly: co-IP; DHT-induced LNCaP cells, endogenous proteins; AR co-precipitating with MLL or SET7; cells treated with SM_1, MI-2 (3.0 uM) or sinefungin (20 uM) for 6 h or 8 h.
The target of experiment [2] is T1, Histone methyltransferase enzyme SET7 (human (endogenous in LNCaP)) (UniProt Q8WTS6).
T1 sequence: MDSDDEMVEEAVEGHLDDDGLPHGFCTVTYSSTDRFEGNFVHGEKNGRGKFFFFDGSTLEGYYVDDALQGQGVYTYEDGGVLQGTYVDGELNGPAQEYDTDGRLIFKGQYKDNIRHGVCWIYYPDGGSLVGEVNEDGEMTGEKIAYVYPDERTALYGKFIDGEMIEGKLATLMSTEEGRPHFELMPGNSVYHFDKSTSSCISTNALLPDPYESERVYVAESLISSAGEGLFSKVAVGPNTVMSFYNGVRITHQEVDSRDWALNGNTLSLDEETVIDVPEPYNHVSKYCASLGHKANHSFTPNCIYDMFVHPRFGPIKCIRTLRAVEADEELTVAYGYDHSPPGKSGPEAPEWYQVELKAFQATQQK
The description is as above.

The chains behind the UniProt entries cited, without tags or fusion partners.
UniProt Q03164: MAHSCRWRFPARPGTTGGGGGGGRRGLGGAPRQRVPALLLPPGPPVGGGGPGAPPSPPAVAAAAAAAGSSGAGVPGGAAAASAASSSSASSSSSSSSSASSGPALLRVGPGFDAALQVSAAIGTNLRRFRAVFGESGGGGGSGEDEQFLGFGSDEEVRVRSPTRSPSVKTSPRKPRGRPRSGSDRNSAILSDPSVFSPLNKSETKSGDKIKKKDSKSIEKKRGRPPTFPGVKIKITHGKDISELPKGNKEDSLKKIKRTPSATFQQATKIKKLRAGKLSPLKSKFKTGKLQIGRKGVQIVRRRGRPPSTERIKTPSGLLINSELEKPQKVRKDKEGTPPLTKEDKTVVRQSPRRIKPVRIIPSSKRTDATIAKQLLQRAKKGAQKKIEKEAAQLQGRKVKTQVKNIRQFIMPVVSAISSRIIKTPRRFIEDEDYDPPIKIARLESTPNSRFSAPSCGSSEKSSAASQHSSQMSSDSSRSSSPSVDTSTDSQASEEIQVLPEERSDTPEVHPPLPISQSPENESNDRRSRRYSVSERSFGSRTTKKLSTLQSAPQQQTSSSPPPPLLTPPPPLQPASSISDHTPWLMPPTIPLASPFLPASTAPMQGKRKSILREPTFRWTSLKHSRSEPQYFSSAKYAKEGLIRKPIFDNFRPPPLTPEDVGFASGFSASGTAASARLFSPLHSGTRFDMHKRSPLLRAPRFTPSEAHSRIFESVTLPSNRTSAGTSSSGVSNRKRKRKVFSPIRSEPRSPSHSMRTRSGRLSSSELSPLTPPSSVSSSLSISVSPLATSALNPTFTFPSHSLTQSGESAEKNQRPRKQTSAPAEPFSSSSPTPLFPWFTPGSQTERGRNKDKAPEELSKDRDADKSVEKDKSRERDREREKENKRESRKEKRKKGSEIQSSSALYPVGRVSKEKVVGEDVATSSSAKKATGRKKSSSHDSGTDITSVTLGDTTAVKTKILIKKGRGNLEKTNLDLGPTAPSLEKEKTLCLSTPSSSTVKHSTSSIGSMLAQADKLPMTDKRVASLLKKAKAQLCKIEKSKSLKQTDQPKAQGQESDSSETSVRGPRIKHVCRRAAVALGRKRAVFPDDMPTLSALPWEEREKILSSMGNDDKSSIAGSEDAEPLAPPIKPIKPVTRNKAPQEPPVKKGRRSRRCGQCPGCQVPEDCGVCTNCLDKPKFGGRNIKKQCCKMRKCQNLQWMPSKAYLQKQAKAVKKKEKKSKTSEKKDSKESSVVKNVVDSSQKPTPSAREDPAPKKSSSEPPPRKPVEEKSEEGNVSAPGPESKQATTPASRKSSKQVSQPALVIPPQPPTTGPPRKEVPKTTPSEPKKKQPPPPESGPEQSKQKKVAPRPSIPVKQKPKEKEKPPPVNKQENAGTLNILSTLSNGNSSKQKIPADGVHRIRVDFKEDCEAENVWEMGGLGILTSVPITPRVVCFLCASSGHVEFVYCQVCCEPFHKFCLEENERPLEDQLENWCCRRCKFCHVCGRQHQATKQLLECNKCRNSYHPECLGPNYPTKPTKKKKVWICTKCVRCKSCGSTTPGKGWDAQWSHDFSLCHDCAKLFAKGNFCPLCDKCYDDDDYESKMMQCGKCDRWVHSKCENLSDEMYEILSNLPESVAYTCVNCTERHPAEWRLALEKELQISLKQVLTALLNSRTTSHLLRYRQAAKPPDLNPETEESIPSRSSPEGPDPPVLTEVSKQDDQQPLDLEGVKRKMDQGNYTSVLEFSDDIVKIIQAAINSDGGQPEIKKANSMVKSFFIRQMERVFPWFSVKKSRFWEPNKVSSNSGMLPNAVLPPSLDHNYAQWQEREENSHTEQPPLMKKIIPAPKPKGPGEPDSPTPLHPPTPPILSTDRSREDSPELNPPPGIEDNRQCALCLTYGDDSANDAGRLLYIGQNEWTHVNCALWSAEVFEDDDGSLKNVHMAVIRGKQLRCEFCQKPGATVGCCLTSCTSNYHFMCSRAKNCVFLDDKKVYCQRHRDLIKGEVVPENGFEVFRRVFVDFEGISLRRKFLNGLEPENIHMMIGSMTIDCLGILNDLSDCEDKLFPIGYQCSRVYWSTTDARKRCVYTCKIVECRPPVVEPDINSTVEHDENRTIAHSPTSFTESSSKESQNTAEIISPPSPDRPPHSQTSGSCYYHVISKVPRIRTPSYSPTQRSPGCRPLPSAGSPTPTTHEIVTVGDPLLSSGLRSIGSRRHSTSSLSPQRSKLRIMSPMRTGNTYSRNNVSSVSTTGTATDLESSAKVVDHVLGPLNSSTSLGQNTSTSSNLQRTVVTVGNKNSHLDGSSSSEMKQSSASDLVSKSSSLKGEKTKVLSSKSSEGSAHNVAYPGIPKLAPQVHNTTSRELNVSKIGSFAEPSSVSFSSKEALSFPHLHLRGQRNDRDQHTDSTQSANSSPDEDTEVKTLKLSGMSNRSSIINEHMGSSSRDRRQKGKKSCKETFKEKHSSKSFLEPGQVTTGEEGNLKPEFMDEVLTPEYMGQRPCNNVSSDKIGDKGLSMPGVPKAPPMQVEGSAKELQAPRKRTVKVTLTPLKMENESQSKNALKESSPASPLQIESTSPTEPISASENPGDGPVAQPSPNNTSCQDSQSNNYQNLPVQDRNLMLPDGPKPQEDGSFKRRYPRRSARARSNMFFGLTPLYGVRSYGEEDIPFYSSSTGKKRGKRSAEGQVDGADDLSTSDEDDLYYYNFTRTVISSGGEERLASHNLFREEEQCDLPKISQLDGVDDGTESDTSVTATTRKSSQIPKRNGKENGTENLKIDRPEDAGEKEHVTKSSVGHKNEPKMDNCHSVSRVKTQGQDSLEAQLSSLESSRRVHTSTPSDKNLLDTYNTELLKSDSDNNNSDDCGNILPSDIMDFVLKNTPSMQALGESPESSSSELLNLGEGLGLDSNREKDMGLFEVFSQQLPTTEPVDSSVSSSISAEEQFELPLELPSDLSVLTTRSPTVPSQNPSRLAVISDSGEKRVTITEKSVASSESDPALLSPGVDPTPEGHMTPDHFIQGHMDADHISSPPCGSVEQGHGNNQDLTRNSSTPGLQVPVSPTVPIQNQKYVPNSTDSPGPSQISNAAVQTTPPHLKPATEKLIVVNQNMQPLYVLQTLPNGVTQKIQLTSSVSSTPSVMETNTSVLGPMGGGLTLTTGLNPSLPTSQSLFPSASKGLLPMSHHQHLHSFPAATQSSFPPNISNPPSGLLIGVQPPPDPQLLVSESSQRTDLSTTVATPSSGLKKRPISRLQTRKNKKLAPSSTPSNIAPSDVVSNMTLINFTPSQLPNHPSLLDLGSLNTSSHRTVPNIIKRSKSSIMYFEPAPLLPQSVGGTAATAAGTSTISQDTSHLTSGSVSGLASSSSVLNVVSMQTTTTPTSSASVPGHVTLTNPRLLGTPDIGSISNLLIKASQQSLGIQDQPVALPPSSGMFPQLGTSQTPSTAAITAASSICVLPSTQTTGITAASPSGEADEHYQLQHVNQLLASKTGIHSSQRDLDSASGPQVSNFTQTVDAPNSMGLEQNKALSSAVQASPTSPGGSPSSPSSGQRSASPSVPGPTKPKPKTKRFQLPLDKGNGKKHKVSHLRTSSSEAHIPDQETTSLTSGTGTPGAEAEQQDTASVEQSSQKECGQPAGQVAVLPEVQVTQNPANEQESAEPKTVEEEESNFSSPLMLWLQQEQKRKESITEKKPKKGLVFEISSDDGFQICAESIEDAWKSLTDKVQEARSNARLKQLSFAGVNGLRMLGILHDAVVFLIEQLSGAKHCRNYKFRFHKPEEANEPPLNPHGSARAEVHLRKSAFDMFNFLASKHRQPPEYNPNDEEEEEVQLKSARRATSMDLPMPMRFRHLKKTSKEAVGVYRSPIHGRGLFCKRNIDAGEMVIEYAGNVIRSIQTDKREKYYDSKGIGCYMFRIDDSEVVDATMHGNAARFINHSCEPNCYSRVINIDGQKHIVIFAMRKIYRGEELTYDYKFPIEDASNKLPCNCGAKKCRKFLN
UniProt P10275: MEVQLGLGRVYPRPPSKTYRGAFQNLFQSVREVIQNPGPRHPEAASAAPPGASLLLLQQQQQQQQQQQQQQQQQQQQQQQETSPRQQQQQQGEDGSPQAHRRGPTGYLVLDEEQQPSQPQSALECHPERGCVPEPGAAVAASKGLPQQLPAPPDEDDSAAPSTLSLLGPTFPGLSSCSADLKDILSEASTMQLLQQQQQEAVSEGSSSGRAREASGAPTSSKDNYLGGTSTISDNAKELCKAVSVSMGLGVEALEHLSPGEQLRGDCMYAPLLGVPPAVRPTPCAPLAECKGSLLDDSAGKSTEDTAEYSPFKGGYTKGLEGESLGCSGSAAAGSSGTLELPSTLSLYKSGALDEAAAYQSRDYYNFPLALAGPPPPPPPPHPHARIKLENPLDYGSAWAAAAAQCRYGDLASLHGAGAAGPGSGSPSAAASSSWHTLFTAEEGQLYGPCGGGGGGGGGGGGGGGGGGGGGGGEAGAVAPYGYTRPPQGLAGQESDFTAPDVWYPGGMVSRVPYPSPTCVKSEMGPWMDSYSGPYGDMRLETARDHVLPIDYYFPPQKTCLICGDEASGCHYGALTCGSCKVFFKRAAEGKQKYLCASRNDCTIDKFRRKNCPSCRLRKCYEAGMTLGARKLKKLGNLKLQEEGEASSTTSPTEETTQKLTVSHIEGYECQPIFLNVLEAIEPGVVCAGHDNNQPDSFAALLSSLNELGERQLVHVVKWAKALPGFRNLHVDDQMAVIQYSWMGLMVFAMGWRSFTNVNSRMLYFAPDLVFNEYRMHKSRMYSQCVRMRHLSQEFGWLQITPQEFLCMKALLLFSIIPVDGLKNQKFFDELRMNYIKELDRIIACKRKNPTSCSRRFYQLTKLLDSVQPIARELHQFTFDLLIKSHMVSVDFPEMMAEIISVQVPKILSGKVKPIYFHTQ

This is an account of results in article PMC10404973.

These are yes or no findings as the source states them, for the method shown. In cells and extracts the contact can be indirect. Some results given as binding are weak or reduced against the parent protein; the word gives no strength. For some assays here: Where a sequence is shown, tags or fusion partners need not be part of it.

As for “androgen receptor (AR) (from UniProt P10275 1-920)”, the binding entry in experiment [1] and in experiment [2] was “binds” each time.
